“And” between values parts separate entries of the source, which are not always exact repeats. Equal values may be shown once. Some of the results follow. Shown are side measurements of this screen, not its main read-out; they come without a call. Compounds called inactive in the main read-out are mostly missing here. The note in brackets gives the kind of curve behind each potency; many fits are weak.
Test: qHTS Assay for Lipid Storage Modulators in Drosophila S3 Cells;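 for cell number change: cells counted by Cell Tracker Red CMTPX staining in the red channel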
Conditions: BODIPY lipid droplet fluorescence, 18-24 h; for cell number change: measured here: cell count max response, cells fed with added oleic acid
Outline: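 Drosophila S3 cells got compounds at several concentrations plus oleic acid (400 uM solution). Laser-scanning cytometry with 488 nm excitation read lipid droplets at 500-530 nm and cells at 575-640 nm. Percent activity was relative to 20 uM Triacsin C.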

[1] = measured here: cell number channel AC50, cells fed with added oleic acid
[2] = measured here: lipid fluorescence (Fed channel) AC50, cells fed with added oleic acid

Compound	cell number change [%]	AC50 [1]	AC50 [2]
CC(=NCc1cccnc1)c1c(O)n(-c2ccccc2)c(=O)[nH]c1=O	-32.8	29.1 µM [falling, single point]	
C=C(C)Cn1c(=O)n(CC2CS2)c2ccccc21 (configuration not stated)	45.6	9.2 µM [rising, partial curve, poor fit]	13 µM [rising, partial curve]
Cc1ccc(C)c(Cn2c(C(=O)O)c(C=O)c3ccccc32)c1	22.5		16.4 µM [rising, single point]
COc1ccc2nc(NC(=O)CCc3nc(C4=CCN(C)CC4)no3)sc2c1			6.51 µM [rising, single point]
CN(C)c1ccc(CCN2CCOCC2)cc1	24.3		6.51 µM [rising, single point]
O=C1NC(=S)N(c2ccc(F)cc2)C(=O)/C1=C/c1ccco1	4.15		0.326 µM [falling, single point]
Cc1cc(C=C2C(=O)NC(=S)NC2=O)c(C)n1-c1ccc2c(c1)OCO2	-22.2		23.1 µM [falling, partial curve]
O=C1C2CCCC1C(N1CCCC1)CC2 (configuration not stated)	-16.6		0.082 µM [falling, full curve, poor fit]
CC(=O)N1N=C2C3CCN(CC3)C2C1c1ccc(Br)cc1 (configuration not stated)	-19.9		1.46 µM [falling, full curve, poor fit]
Cc1ccccc1OCCN=Cc1c(O)n(C)c(=O)n(C)c1=O	-7.82		29.1 µM [falling, single point]
COC(=O)C1C2c3ccccc3OC1(C)N=c1s/c(=C/c3cnn(C)c3)c(=O)n12 (configuration not stated)	12.6	2.91 µM [rising, single point]	14.6 µM [rising, single point]
Brc1ccc(Oc2ccc(Br)cc2Br)c(Br)c1	15.5		0.116 µM [falling, single point]
COc1ccc(C2c3c(nc(C)[nH]c3=O)Oc3c2c(=O)oc2ccccc32)cc1 (configuration not stated)	13.3		0.651 µM [rising, full curve, poor fit]
CN1C(=O)N(C)C(=O)C2(Cc3cc(NC(=O)c4ccc(F)cc4)ccc3N3CCCC32)C1=O (configuration not stated)	21.8	4.61 µM [rising, single point]	29.1 µM [rising, single point]
CCOC(=O)c1c(N)n(CCN2CCOCC2)c2nc3ccccc3nc12	4.84	5.17 µM [rising, partial curve]	2.59 µM [rising, single point]
C[C@@]1(CO)[C@H](O)CC[C@@]2(C)[C@H]1CC[C@H]1C[C@@H]3C[C@@]12CC[C@]3(O)CO		0.206 µM [falling, full curve, poor fit]	0.146 µM [falling, full curve]
CCOP(=O)(OCC)C(NC(C)=O)C(=O)c1ccccc1 (configuration not stated)		0.184 µM [rising, full curve, poor fit]	
C=CCN1C(=O)NC(=O)/C(=C\c2ccc(-c3ccccc3[N+](=O)[O-])o2)C1=O	-35.1	6.51 µM [falling, single point]	4.11 µM [falling, single point]
O=c1[nH]c(=S)[nH]c(O)c1N=Nc1ccc(SC(F)F)cc1	0.874		0.00411 µM [falling, full curve, poor fit]
CCCCCCn1c(=O)c(C(=O)Nc2cnccn2)c(O)c2ccccc21	-34.4	32.6 µM [falling, partial curve, poor fit]	11.6 µM [falling, partial curve, poor fit]
Cn1nc(-c2ccc(OCC(=O)N3CCN(Cc4ccccc4)CC3)cc2)c2ccccc2c1=O	0.203	6.51 µM [rising, single point]	6.51 nM [falling, full curve] and 6.51 µM [rising, single point]
CCCCCC[N+](=O)[O-]	1.03	0.92 µM [falling, single point]	1.16 µM [falling, single point]
CN1CCN(Cc2cc(=O)n3ccsc3n2)CC1	32.4		
COC(=O)C1=C(c2cccc(OCc3ccccc3)c2)C[C@@H]2CC[C@H]1N2C(=O)NCCc1ccc(F)cc1	-7.8	2.91 µM [falling, single point]	
c1ccc(P(c2ccccc2)c2ccccn2)cc1	-8		0.082 µM [falling, full curve, poor fit]
O=c1[nH]c(=O)n(CCC2=CCCCC2)c(O)c1C=Nc1cccc(F)c1	-34.8	0.731 µM [falling, full curve, poor fit]	
Cc1cc(OCC(=O)Nc2cc(C)nn2-c2ccccn2)c2c3c(c(=O)oc2c1)CCC3	30.1	0.366 µM [rising, full curve]	0.92 µM [rising, partial curve]
CCc1ccc(N2C(=O)NC(=O)C(Cc3ccc(OC)cc3OC)C2=O)cc1 (configuration not stated)			0.326 µM [falling, partial curve, poor fit]

Not a retest: two of the compounds above.
Compound	cell number change [%]	AC50 [1]	AC50 [2]
CCOP(=O)(OCC)C(NC(C)=O)C(=O)c1ccccc1 (configuration not stated)		0.184 µM [rising, full curve, poor fit]	
C=CCN1C(=O)NC(=O)/C(=C\c2ccc(-c3ccccc3[N+](=O)[O-])o2)C1=O	-35.1	6.51 µM [falling, single point]	4.11 µM [falling, single point]

2 compounds drawn at random from those above:
Compound	cell number change [%]	AC50 [1]	AC50 [2]
C[C@@]1(CO)[C@H](O)CC[C@@]2(C)[C@H]1CC[C@H]1C[C@@H]3C[C@@]12CC[C@]3(O)CO		0.206 µM [falling, full curve, poor fit]	0.146 µM [falling, full curve]
O=C1NC(=S)N(c2ccc(F)cc2)C(=O)/C1=C/c1ccco1	4.15		0.326 µM [falling, single point]

The results go on.

Compound	cell number change [%]	AC50 [1]	AC50 [2]
Cc1ccc(C(=O)N[C@@H](C)CN2C3=NC[C@H](Cc4ccccc4)N3C[C@H]2Cc2ccc(O)cc2)cc1Br	-67.6	32.6 µM [falling, single point]	5.8 µM [falling, partial curve]
CCCCNC(=O)c1c(N)n(Cc2ccc3c(c2)OCO3)c2nc3ccccc3nc12	19.7	0.366 µM [rising, full curve, poor fit]	
O=C1CC(=O)N(c2ccc(Cl)cc2)C(=O)N1	16.8		29.1 µM [rising, single point]
CCC(C(=O)N1C[C@H]2C[C@@H](C1)c1cccc(=O)n1C2)c1ccccc1 (some centres not stated)	9.45		25.9 µM [rising, single point]
COc1ccc(NC(=O)N2CCC3(CC2)OCCO3)c(OC)c1	-34.4	0.651 µM [falling, full curve, poor fit]	
COCCNC(=O)CN1C(=O)CN=C(c2ccccc2)c2ccccc21	19.6		1.46 µM [falling, partial curve, poor fit]
CCCC(C)n1[nH]c(=O)c2c1NC(=O)CSC2c1ccc(OC)c(OC)c1 (configuration not stated)	7.21		32.6 µM [rising, single point]
Cc1c2cnn(CC(=O)N3CCC4(CC3)OCCO4)c(=O)c2c(C)n1Cc1ccc(F)cc1	-2.32		29.1 µM [rising, single point]
O=C(Cc1ccccc1)NC(Oc1ccccc1Cl)C(Cl)(Cl)Cl (configuration not stated)	5.18	7.31 µM [falling, partial curve]	4.61 µM [falling, single point]
CC/C(=N\Nc1cccc2ccccc12)c1c(O)[nH]c(=O)[nH]c1=O	13.4	1.84 µM [rising, partial curve]	0.082 µM [rising, full curve, poor fit]
Cc1cc(C(=O)CN2CCCC2)c(C)n1-c1ccc(F)cc1		5.17 µM [rising, partial curve, poor fit]	
Cc1cc(C=O)c(C)n1C1CCCCC1	3.13		0.411 µM [falling, single point]
CC1CCC/C=C/C2CC(O)CC2C(O)/C=C/C(=O)O1 (configuration not stated)	-68.7	29.1 µM [falling, single point]	
O=C(O)c1ccccc1NC(=O)C1C2CCC(O2)C1C(=O)O (configuration not stated)	12.8		29.1 µM [falling, single point]
CCOC(=O)C(C)Oc1cc(C)cc2oc(=O)c3c(c12)CCCC3 (configuration not stated)	0.797		0.164 µM [rising, full curve, poor fit]
Cc1c(Oc2cc(NN3CCCCC3)c([N+](=O)[O-])cc2[N+](=O)[O-])cccc1[N+](=O)[O-]	-14.7		
CCC(=NCc1ccc2c(c1)OCO2)c1c(O)n(C)c(=O)n(C)c1=O	-27.5		
CCCC(C)C1(CC)C(=O)NC(=Nc2ccc(F)cc2)NC1=O (configuration not stated)	-65.2	29.1 µM [falling, single point]	
Cc1ccc(N2C(=O)NC(=O)/C(=C/C=C/c3ccco3)C2=O)cc1	-45.6	11.6 µM [falling, partial curve]	9.2 µM [falling, partial curve]
CCN1CCN(Cc2ccc(C)cc2)CC1	-75.9	29.1 µM [falling, partial curve, poor fit]	0.00461 µM [falling, full curve, poor fit]
CCCCn1c(=O)c(C(=O)Nc2ncccc2C)c(O)c2ccccc21	23.7		29.1 µM [rising, single point]
CN(C)C1=C(C#N)C(c2ccccc2)=NP(N(C)C)(N(C)C)=N1	10.1		3.66 µM [rising, partial curve, poor fit]
CC1=NN(c2ccccc2)C(=O)/C1=C/c1c(O)[nH]c(=O)[nH]c1=O	-22.1		
N#CC(C#N)=Cc1ccc(C=C(C#N)C#N)cc1	-10.3		6.51 µM [falling, partial curve]
Cc1cc(C)n2nc(SCC(=O)N3CCC4(CC3)OCCO4)nc2n1		2.06 µM [falling, partial curve]	
CC(C)C1(C)N=C(c2nc3ccccc3cc2C(=O)O)NC1=O (configuration not stated)	-60.8	1.84 µM [falling, full curve]	29.1 µM [falling, single point]
CCN(CC)c1ccc(CNCCc2ccccc2F)cc1	-12	6.51 µM [falling, single point]	6.51 µM [falling, single point]

Reference: PubChem BioAssay AID2685 (National Center for Advancing Translational Sciences (NCATS), 2010)
